The values that follow come from patent US11236059B2 (HELMHOLTZ-ZENTRUM FUER INFEKTIONSFORSCHUNG GMBH, priority 2017, dated 2022).

One series is described as follows: general procedure: Fmoc solid-phase peptide synthesis; Rapp 2-chlorotrityl resin; Rapp S RAM resin (0.8 mmol/g); HATU/HOAt/NMM; TBTU/DiPEA. The note with it: conjugation step.
Take “N^2—((S)-4-(4-(((2-amino-4-hydroxypteridin-6-yl)methyl)amino)benzamido)-4-carboxybutanoyl)-L-aspartyl-L-aspartyl-L-aspartyl-N^6 (4-((5aR,6S,6aS)-6-((((2-(3-(3′,6′-dihydroxy-3-oxo-3H-spiro[isobenzofuran-1,9′-xanthen]-5-yl)thioureido)ethyl)carbamoyl)oxy)methyl)-5,5a,6,6a,7,8-hexahydrocyclopropa[5,6]cycloocta[1,2-d][1,2,3]triazol-1 (4H)-yl)benzoyl)-L-lysine”: the conjugation yield is 30%.
In turn, L-Orn-LHRH—CF registered a conjugation yield of 60%.
On the same count and under the same terms, with “((5aR,6S,6aS)-1-((3S,6S,9S,12S,15R)-3-((1H-imidazol-4-yl)methyl)-6-((1H-indol-3-yl)methyl)-15-(((S)-1-(((S)-1—((S)-2-((2-amino-2-oxoethyl)carbamoyl)pyrrolidin-1-yl)-5-guanidino-1-oxopentan-2-yl)amino)-4-methyl-1-oxopentan-2-yl)carbamoyl)-12-(4-hydroxybenzyl)-9-(hydroxymethyl)-1,4,7,10,13-pentaoxo-1-((S)-5-oxopyrrolidin-2-yl)-2,5,8,11,14-pentaazaoctadecan-18-yl)-1,4,5,5a,6,6a,7,8-octahydrocyclopropa[5,6]cycloocta[1,2-d][1,2,3]triazol-6-yl)methyl (2-(2-(2-(3′,6′-dihydroxy-3-oxo-3H-spiro[isobenzofuran-1,9′-xanthene]-5-carboxamido)ethoxy)ethoxy)ethyl)carbamate” the figure was 69%.
Substance “((5aR,6S,6aS)-1-((3S,6S,9S,12S,15R)-3-((1H-imidazol-4-yl)methyl)-6-((1H-indol-3-yl)methyl)-15-(((S)-1-(((S)-1—((S)-2-(2-carbamoylhydrazine-1-carbonyl)pyrrolidin-1-yl)-5-guanidino-1-oxopentan-2-yl)amino)-4-methyl-1-oxopentan-2-yl)carbamoyl)-12-(4-hydroxybenzyl)-9-(hydroxymethyl)-1,4,7,10,13-pentaoxo-1-((S)-5-oxopyrrolidin-2-yl)-2,5,8,11,14-pentaazaoctadecan-18-yl)-1,4,5,5a,6,6a,7,8-octahydrocyclopropa[5,6]cycloocta[1,2-d][1,2,3]triazol-6-yl)methyl (2-(2-(2-(3′,6′-dihydroxy-3-oxo-3H-spiro[isobenzofuran-1,9′-xanthene]-5-carboxamido)ethoxy)ethoxy)ethyl)carbamate” gave a conjugation yield of 70%.
Same read-out and setting: with “N^2-(4-(((2-amino-4-hydroxypteridin-6-yl)methyl)amino)benzoyl)-N^5—((S)-1-(((S)-1-(((S)-1-(((S)-6-(4-azidobenzamido)-1-methoxy-1-oxohexan-2-yl)amino)-3-carboxy-1-oxopropan-2-yl)amino)-3-carboxy-1-oxopropan-2-yl)amino)-3-carboxy-1-oxopropan-2-yl)-L-glutamine” the figure was 32%; with “((S)-2-((R)-2-((R)-2-((R)-2-((S)-4-(4-(((2-amino-4-hydroxypteridin-6-yl)methyl)amino)benzamido)-4-carboxybutanamido)-3-carboxypropanamido)-3-carboxypropanamido)-3-carboxypropanamido)-5-(4-(2-(((2-(3-(3′,6′-dihydroxy-3-oxo-3H-spiro[isobenzofuran-1,9′-xanthen]-5-yl)thioureido)ethyl)carbamoyl)oxy)ethyl)-1H-1,2,3-triazol-1-yl)pentanoyl)-D-aspartyl-D-aspartyl-D-lysine”, 57%.
Regarding “N^2-N^2—((S)-4-(4-(((2-amino-4-hydroxypteridin-6-yl)methyl)amino)benzamido)-4-carboxybutanoyl)-D-aspartyl-D-aspartyl-N^6-(4-(2-(4-(2-(((2-(3-(3′,6′-dihydroxy-3-oxo-3H-spiro[isobenzofuran-1,9′-xanthen]-5-yl)thioureido)ethyl)carbamoyl)oxy)ethyl)-1H-1,2,3-triazol-1-yl))benzoyl)-L-lysyl-L-aspartyl-L-aspartyl-N^6-(4-fluorobenzoyl)-L-lysine”, the conjugation yield stood at 27%.

Staying with this series, now noted: coupling step.
Substance “(7S,10S,13S,16S)-16-((((9H-fluoren-9-yl)methoxy)carbonyl)amino)-1-(4-azidophenyl)-10,13-bis(carboxymethyl)-7-(methoxycarbonyl)-1,9,12,15-tetraoxo-2,8,11,14-tetraazaoctadecan-18-oic acid” displayed a step yield of 52%.
